Experimental data published in patent publication US20140220596A1 (MEDICINAL BIOCONVERGENCE RESEARCH CENTER, published 2014).

How the values were obtained:
[1] = molecular target: T1, cadherin-6 (CDH6), endogenous in cancer cell lines (HCT116, SN12, Caki-1) (human) (UniProt P55285); test: biotin-GRS on SN12 cells, detected with streptavidin-HRP
T1 sequence (looked up): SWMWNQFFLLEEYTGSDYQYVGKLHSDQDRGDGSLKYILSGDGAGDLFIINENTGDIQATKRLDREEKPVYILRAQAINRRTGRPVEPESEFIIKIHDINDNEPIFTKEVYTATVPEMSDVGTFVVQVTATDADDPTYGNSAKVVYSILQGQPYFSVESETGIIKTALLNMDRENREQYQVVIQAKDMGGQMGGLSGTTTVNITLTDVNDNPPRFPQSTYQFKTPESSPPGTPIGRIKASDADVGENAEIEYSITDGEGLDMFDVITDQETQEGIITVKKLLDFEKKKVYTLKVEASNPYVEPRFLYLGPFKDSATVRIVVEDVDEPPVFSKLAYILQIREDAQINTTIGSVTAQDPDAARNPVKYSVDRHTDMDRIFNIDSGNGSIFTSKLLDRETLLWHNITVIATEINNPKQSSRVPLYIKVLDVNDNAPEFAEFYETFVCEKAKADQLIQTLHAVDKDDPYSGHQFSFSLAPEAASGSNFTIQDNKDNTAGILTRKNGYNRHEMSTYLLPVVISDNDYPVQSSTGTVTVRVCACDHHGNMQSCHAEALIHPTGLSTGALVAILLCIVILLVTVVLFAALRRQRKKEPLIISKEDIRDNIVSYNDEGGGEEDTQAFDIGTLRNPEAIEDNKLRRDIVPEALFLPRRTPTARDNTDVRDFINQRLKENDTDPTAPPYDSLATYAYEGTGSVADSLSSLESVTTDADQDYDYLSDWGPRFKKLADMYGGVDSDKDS

[2] = molecular target: T1, cadherin-6 (CDH6), endogenous in cancer cell lines (HCT116, SN12, Caki-1) (human); test: cell binding: SN12 cells incubated with biotin-GRS, lysate blotted with streptavidin-HRP; the filing ties the binding to CDH6 by comparison with RENCA cells, which show no CDH6 band (Fig. 7C)
[3] = molecular target: T1, cadherin-6 (CDH6), endogenous in cancer cell lines (HCT116, SN12, Caki-1) (human); test: biotinylated GRS on HCT116 cells with or without si-CDH6, western blot and flow cytometry
[4] = molecular target: T2, Fc-fused soluble cadherin-6 (extracellular domain of CDH6 fused to the Fc fragment of human IgG1) (human) (UniProt P55285); test: pull-down of Fc-cadherin with protein A/G agarose, immunoblot with anti-GRS
T2 sequence: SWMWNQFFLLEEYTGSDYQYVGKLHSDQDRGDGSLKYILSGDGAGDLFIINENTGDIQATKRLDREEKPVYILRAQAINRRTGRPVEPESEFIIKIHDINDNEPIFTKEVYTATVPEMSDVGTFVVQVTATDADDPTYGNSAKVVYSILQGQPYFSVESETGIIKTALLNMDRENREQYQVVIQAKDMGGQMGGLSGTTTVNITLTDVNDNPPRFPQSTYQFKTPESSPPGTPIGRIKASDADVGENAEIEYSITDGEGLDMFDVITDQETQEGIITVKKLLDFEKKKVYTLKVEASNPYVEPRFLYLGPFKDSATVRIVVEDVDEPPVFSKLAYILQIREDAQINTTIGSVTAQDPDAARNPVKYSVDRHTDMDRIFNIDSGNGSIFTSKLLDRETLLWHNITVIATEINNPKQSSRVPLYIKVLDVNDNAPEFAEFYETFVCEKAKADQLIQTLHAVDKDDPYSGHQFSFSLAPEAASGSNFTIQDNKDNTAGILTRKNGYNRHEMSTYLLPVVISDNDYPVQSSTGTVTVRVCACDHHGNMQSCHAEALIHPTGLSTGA

[5] = molecular target: T2, Fc-fused soluble cadherin-6 (extracellular domain of CDH6 fused to the Fc fragment of human IgG1) (human); test: ELISA, His-GRS coated on the plate, Fc-cadherin added, anti-human IgG1 Fc-HRP detection

Substance | binding [1] | binding [2] | binding [3] | binding [4] | binding [5]
biotinylated recombinant human GRS (enzyme) | binds | binds | binds | – | –
His-tagged recombinant human glycyl-tRNA synthetase (GRS), 685 amino acids (enzyme) | – | – | – | binds | binds

No constants are given. Whether binding was seen depends on the method and setting. Binding calls can cover weak binding; strength is not graded here. For some assays here: Tags and fused reporters may be left off the sequences shown.
